Reference: patent US4296206A, “Irreversible anti-glucocorticoids” (United States of America, priority 1980, dated 1981)
The name of at least one read-out is uncertain.

Tested on: tyrosine aminotransferase (TAT) induction in HTC cells
Experiment: induction of tyrosine aminotransferase (TAT) in whole HTC cells
Type: cell-based, rat
Conditions: stated equal to the apparent KI of CM; read-out: Kd of cortisol induction of TAT in HTC cells
From the text: Ir (nujol) ~3400. 1733, 1659, 1359, 1170 cm^-1. […] 59.98; H. 7.32; S. 7.28.
HTC cells display several biological responses to glucocorticoids. Tyrosine aminotransferase (TAT) is one specific, glucocorticoid inducible enzyme in HTC cells; and previous extensive studies argue that TAT induction in HTC cells is a primary response to glucocorticoids that is initiated by the binding of steroid to a specific, cytoplasmic receptor. […] The basal level of TAT activity is shown by the dashed line.

C[C@]12CCC(=O)C=C1CC[C@@H]1[C@@H]2[C@@H](O)C[C@@]2(C)[C@H]1CC[C@]2(O)C(=O)CO [cortisol, reference compound]
Kd: ~100 nM
